Reference: patent US20200405867A1, “ORAL DOSAGE FORMS” (Sunovion Pharmaceuticals Inc., priority 2018, published 2020)

Assay: human taste study of dasotraline capsule contents, Flavor Profile Method (adult panel)
Type: in vivo

Structure (SMILES): N[C@@H]1CC[C@@H](c2ccc(Cl)c(Cl)c2)c2ccccc21 [dasotraline, (1R,4S)-4-(3,4-dichlorophenyl)-1,2,3,4-tetrahydronaphthalen-1-amine]
- tongue sting and metallic aromatics, time lingered (2 mg capsule contents): 3 min
- bitter basic taste, persistence in aftertaste (2 mg capsule contents, 10 s in mouth): lingered at patient-perceptible levels for the first five minutes of aftertaste
- flavor profile compared with 2 mg capsule (4 mg capsule contents): more intense and lingered longer at patient-perceptible levels
- flavor profile compared with 4 mg capsule (6 mg capsule and 8 mg capsule contents): persisted at patient-perceptible intensities for longer periods of time
- natural taste / paresthesic feeling in the tongue (in vivo): naturally bitter taste
